Data reported in paper PMC4860962.
No constants are given. Whether binding was seen depends on the method and setting. For some assays here: Binding seen in cells or lysates may run through a third protein. Some binding calls cover weakened binding; strength is not graded here. For some assays here: Sequences can lack the tags named with a protein.

Protein sequences, listed by entry. Tags and fused reporters are not part of them. Lines headed by an entry give the natural chain unless they say otherwise; changes in a name come on top. Residues count along the entry.
UniProt Q00987: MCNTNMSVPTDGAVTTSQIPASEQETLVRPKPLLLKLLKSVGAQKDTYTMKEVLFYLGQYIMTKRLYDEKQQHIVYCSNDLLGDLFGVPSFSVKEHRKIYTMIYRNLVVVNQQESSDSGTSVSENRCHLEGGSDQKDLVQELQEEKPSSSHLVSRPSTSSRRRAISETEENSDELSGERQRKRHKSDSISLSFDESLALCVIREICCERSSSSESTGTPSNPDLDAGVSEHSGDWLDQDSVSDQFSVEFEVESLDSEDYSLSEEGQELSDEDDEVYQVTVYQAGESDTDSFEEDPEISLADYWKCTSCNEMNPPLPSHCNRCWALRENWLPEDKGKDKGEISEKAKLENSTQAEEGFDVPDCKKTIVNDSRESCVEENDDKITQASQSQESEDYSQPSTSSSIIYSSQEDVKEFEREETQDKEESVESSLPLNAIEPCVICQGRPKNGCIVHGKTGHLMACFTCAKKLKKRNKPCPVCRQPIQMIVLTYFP
GST-Mdm2 p53-binding domain (1–150): residues 1-150 of Q00987
GST-Mdm2 middle acid domain (210–300): residues 210-300 of Q00987
GST-Mdm2 C-terminal RING domain-containing region (425–491): residues 425-491 of Q00987

What was measured:
[1] = biological target: Mdm2, endogenous in HCT116 cells and their derivatives (human (endogenous in HCT116)) (UniProt Q00987); experiment: co-IP; endogenous proteins; BC100 whole-cell extracts (HCT116, HCT116 p53^-/-, U2OS) precipitated with anti-p53 (1801), anti-Mdm2 (4B11) or mouse IgG overnight at 4 °C, Protein A/G agarose; western blot
[2] = biological target: GST-Mdm2 C-terminal RING domain-containing region (425–491) (human) (UniProt Q00987); experiment: pull-down; 2 μg GST or GST-fusion protein on 10 μl GST beads, purified FH-SMG7 in solution; BC100 buffer with 1 μg/μl BSA, overnight at 4 °C, five washes; western blot; both purified
[3] = biological target: GST-Mdm2 p53-binding domain (1–150) (human) (UniProt Q00987); experiment: as above
[4] = biological target: GST-Mdm2 middle acid domain (210–300) (human) (UniProt Q00987); experiment: as above
[5] = biological target: full-length GST-Mdm2 (human) (UniProt Q00987); experiment: as above

Binder	binding [1]	binding [2]	binding [3]	binding [4]	binding [5]
SMG7 (suppressor with morphological defects in genitalia 7), endogenous in HCT116 cells and their derivatives (protein, UniProt Q92540-2 1-1091) MSLQSAQYLRQAEVLKADMTDSKLGPAEVWTSRQALQDLYQKMLVTDLEYALDKKVEQDLWNHAFKNQITTLQGQAKNRANPNRSEVQANLSLFLEAASGFYTQLLQELCTVFNVDLPCRVKSSQLGIISNKQTHTSAIVKPQSSSCSYICQHCLVHLGDIARYRNQTSQAESYYRHAAQLVPSNGQPYNQLAILASSKGDHLTTIFYYCRSIAVKFPFPAASTNLQKALSKALESRDEVKTKWGVSDFIKAFIKFHGHVYLSKSLEKLSPLREKLEEQFKRLLFQKAFNSQQLVHVTVINLFQLHHLRDFSNETEQHTYSQDEQLCWTQLLALFMSFLGILCKCPLQNESQEESYNAYPLPAVKVSMDWLRLRPRVFQEAVVDERQYIWPWLISLLNSFHPHEEDLSSISATPLPEEFELQGFLALRPSFRNLDFSKGHQGITGDKEGQQRRIRQQRLISIGKWIADNQPRLIQCENEVGKLLFITEIPELILEDPSEAKENLILQETSVIESLAADGSPGLKSVLSTSRNLSNNCDTGEKPVVTFKENIKTREVNRDQGRSFPPKEVKSQTELRKTPVSEARKTPVTQTPTQASNSQFIPIHHPGAFPPLPSRPGFPPPTYVIPPPVAFSMGSGYTFPAGVSVPGTFLQPTAHSPAGNQVQAGKQSHIPYSQQRPSGPGPMNQGPQQSQPPSQQPLTSLPAQPTAQSTSQLQVQALTQQQQSPTKAVPALGKSPPHHSGFQQYQQADASKQLWNPPQVQGPLGKIMPVKQPYYLQTQDPIKLFEPSLQPPVMQQQPLEKKMKPFPMEPYNHNPSEVKVPEFYWDSSYSMADNRSVMAQQANIDRRGKRSPGVFRPEQDPVPRMPFEKSLLEKPSELMSHSSSFLSLTGFSLNQERYPNNSMFNEVYGKNLTSSSKAELSPSMAPQETSLYSLFEGTPWSPSLPASSDHSTPASQSPHSSNPSSLPSSPPTHNHNSVPFSNFGPIGTPDNRDRRTADRWKTDKPAMGGFGIDYLSATSSSESSWHQASTPSGTWTGHGPSMEDSSAVLMESLKSIWSSSMMHPGPSALEQLLMQQKQKQQRGQGTMNPPH	binds				
purified Flag/HA-SMG7 (protein, UniProt Q92540-2 1-1091) MSLQSAQYLRQAEVLKADMTDSKLGPAEVWTSRQALQDLYQKMLVTDLEYALDKKVEQDLWNHAFKNQITTLQGQAKNRANPNRSEVQANLSLFLEAASGFYTQLLQELCTVFNVDLPCRVKSSQLGIISNKQTHTSAIVKPQSSSCSYICQHCLVHLGDIARYRNQTSQAESYYRHAAQLVPSNGQPYNQLAILASSKGDHLTTIFYYCRSIAVKFPFPAASTNLQKALSKALESRDEVKTKWGVSDFIKAFIKFHGHVYLSKSLEKLSPLREKLEEQFKRLLFQKAFNSQQLVHVTVINLFQLHHLRDFSNETEQHTYSQDEQLCWTQLLALFMSFLGILCKCPLQNESQEESYNAYPLPAVKVSMDWLRLRPRVFQEAVVDERQYIWPWLISLLNSFHPHEEDLSSISATPLPEEFELQGFLALRPSFRNLDFSKGHQGITGDKEGQQRRIRQQRLISIGKWIADNQPRLIQCENEVGKLLFITEIPELILEDPSEAKENLILQETSVIESLAADGSPGLKSVLSTSRNLSNNCDTGEKPVVTFKENIKTREVNRDQGRSFPPKEVKSQTELRKTPVSEARKTPVTQTPTQASNSQFIPIHHPGAFPPLPSRPGFPPPTYVIPPPVAFSMGSGYTFPAGVSVPGTFLQPTAHSPAGNQVQAGKQSHIPYSQQRPSGPGPMNQGPQQSQPPSQQPLTSLPAQPTAQSTSQLQVQALTQQQQSPTKAVPALGKSPPHHSGFQQYQQADASKQLWNPPQVQGPLGKIMPVKQPYYLQTQDPIKLFEPSLQPPVMQQQPLEKKMKPFPMEPYNHNPSEVKVPEFYWDSSYSMADNRSVMAQQANIDRRGKRSPGVFRPEQDPVPRMPFEKSLLEKPSELMSHSSSFLSLTGFSLNQERYPNNSMFNEVYGKNLTSSSKAELSPSMAPQETSLYSLFEGTPWSPSLPASSDHSTPASQSPHSSNPSSLPSSPPTHNHNSVPFSNFGPIGTPDNRDRRTADRWKTDKPAMGGFGIDYLSATSSSESSWHQASTPSGTWTGHGPSMEDSSAVLMESLKSIWSSSMMHPGPSALEQLLMQQKQKQQRGQGTMNPPH		binds	binds weakly	no binding	binds
